Reference: article PMC3795673
Results are given in words; binding and its absence hold for the method and conditions named. In cells and extracts the contact can be indirect. A yes stands for co-enrichment or nearness to the bait. Other partners may have been found.

Protein sequences, listed by entry. Tags and fused reporters are not part of them. Lines headed by an entry give the natural chain unless they say otherwise; changes in a name come on top. Chains listed by the source or under a name are the forms on record and can include a tag or linker.
MDM2-C (endogenous human MDM2 splice isoform C) (human (endogenous in MANCA)) (Q00987, form named): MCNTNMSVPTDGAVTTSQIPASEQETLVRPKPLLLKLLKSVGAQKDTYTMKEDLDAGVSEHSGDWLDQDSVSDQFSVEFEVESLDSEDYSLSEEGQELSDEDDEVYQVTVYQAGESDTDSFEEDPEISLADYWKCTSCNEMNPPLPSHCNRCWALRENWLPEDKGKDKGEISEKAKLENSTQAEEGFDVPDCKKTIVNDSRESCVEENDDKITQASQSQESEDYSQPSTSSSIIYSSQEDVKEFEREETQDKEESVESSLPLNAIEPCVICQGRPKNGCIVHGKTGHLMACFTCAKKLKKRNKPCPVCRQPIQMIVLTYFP
UniProt P11142: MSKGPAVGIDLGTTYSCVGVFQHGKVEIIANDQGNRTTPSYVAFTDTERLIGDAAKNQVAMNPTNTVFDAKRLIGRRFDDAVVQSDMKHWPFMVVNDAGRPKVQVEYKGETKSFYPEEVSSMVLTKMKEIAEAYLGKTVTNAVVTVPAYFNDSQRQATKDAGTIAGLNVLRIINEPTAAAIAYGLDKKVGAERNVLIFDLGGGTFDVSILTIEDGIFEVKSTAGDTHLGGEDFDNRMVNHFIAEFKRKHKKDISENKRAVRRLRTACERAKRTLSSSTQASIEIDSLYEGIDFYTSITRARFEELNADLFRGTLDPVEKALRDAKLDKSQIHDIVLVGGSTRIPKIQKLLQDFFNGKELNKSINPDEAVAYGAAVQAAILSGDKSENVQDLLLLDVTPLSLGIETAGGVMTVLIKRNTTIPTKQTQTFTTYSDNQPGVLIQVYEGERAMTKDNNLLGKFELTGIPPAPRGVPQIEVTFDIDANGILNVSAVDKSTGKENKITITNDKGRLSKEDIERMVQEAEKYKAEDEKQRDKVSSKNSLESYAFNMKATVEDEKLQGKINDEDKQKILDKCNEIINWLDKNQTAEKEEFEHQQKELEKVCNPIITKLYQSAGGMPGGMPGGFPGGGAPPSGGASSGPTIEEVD
UniProt P08238: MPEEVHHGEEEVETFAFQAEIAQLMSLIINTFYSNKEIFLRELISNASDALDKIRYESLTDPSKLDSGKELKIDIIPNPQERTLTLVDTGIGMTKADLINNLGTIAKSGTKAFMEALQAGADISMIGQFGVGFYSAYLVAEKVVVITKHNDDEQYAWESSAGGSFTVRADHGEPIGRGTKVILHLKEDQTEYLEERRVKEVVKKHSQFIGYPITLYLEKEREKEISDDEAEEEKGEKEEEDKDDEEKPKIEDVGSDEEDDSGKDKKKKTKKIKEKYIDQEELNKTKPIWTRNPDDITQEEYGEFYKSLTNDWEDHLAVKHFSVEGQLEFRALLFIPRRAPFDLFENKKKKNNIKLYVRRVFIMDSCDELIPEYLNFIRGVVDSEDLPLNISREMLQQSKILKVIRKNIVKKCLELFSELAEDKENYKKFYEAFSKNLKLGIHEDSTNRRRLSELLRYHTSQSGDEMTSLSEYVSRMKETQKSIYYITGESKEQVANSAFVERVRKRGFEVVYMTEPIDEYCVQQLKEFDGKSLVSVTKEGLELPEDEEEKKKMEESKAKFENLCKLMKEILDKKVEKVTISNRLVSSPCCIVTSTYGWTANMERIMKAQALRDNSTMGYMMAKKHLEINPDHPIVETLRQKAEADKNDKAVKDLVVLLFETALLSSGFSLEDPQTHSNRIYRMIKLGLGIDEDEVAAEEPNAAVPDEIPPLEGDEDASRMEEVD
UniProt P17844: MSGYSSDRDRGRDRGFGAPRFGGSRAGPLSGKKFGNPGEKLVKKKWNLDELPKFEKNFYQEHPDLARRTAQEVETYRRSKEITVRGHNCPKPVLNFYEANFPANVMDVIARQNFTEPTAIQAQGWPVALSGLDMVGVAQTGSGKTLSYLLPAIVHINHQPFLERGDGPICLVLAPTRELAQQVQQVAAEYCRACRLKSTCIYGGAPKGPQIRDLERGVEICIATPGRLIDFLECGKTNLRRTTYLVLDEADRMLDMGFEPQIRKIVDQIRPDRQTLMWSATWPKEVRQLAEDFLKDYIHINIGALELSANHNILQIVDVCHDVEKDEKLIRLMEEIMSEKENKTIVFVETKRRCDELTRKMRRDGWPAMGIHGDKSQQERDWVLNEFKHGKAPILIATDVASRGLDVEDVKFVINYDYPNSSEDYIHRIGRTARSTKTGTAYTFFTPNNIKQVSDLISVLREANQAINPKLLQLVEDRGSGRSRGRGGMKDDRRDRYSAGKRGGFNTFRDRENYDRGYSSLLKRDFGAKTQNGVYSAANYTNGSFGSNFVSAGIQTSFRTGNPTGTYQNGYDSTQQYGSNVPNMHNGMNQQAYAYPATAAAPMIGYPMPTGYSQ

target: MDM2-C (endogenous human MDM2 splice isoform C) (human (endogenous in MANCA)) (UniProt Q00987); assay: affinity purification with mass spectrometry; MDM2 C410 serum immunoprecipitation from MANCA whole cell extracts (pre-immune serum as control), SDS-PAGE, Coomassie-stained bands excised, trypsin digestion, LC-MS/MS, Scaffold 3 analysis (at least five peptides with 95% probability)

binding, binds:
Heat Shock Cognate 71 Protein (HSP7C) (from UniProt P11142 1-646)
Heat Shock protein HSP90β (HS90B) (from UniProt P08238 1-724)
probable ATP-dependent RNA helicase (DDX5) (from UniProt P17844 1-614)
